Reference: PubChem BioAssay AID1347426 (Functional Genomics Laboratory (NCATS/FGL), 2020)
Hit rate of the full screen: of about 31,000 sequences, about 1,400 (4.5%) were called active.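 How the source made its calls: active means median seed-adjusted z-score above 1 or below -1; inactive means the rest.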 This is one part of the list.

Experiment: Novel Modifiers of Survival Motor Neuron (SMN) Protein: Gene Identification via Genome-wide siRNA Screen
Conditions: HEK293T SMN2-luciferase reporter, siRNA knockdown, 72 h; actives lie on both sides
From the text: Spinal muscular atrophy (SMA) is the most common neuromuscular autosomal recessive disorder and one of the leading genetic causes of infant death. SMA results from mutations inducing loss of function or deletion in the survival of motor neuron-1 gene (SMN1), leading to deficiency of the survival motor neuron (SMN) protein. Although a second nearly identical gene, SMN2, is retained in humans, its expression primarily produces an aberrantly spliced isoform that is largely unstable and quickly degraded. We performed a genome-wide RNAi screen using a cell-based reporter assay to identify genes and pathways that modulate SMN protein stability. The screen identified over 200 genes that led to the greatest increase or decrease in luciferase expression.
Using HEK293T cells stably expressing a luciferase reporter that combines the promoter and splicing based cassettes in tandem with the major portion of the native SMN2 cDNA with luciferase, we performed a genome-wide RNAi screen to identify modulators of SMN protein levels. Luciferase is expressed when full-length SMN protein is generated with luminescence signal proportional to SMN protein levels. Our luciferase-based reporter assay was used to screen Ambion Silencer Select Human Druggable Genome siRNA library (10418 genes, 3 unique siRNAs per gene) using lipid-based reverse transfection.
Briefly, 1 pmol of each siRNA was spotted to a well of a 384-well plate (Corning, Corning, NY) and 20 microL of serum-free DMEM containing […] of Lipofectamine RNAiMax (Life Technologies, Carlsbad, CA) was then added to each well. Transfected cells were maintained at 37 degrees C in 5% CO2 for 72 hours, 20 microL of ONE-Glo Reagent (Promega) was added to wells for luciferase quantification. Raw luminescence reads were normalized to Ambion(R) Silencer(R) Negative Control #2 siRNA, then log10 transformed. A robust statistical measure of median absolute deviation (MAD) to standardize siRNA activities from each screen. Common Seed Analysis was used to help prioritize clean hits as opposed to those appearing to arise from seed based off-target effects. Candidate modulators were defined as the genes having a MAD score greater than 1.0 or less than -1.0.
For ACUAGCCUAUUAUUCCAAATT against VGLL2, the median seed-adjusted z-score was inactive: -0.0234.
In the case of CCAGCACACCUUACCGCUATT against PREB, the median seed-adjusted z-score is reported as inactive: 0.182.
With UGAACAAACCAUACCUGUUTT against PRSS22 the median seed-adjusted z-score was inactive: -0.565.
For GCCUAGUGCCCGAAGUGAATT against F11R, the median seed-adjusted z-score was inactive: -0.329.
For GGAACAACGAGAUGCAGAATT against BDKRB2, the median seed-adjusted z-score was inactive: -0.311.
With CCCUAUCAGUCAUAUUGGATT against DRD1 the median seed-adjusted z-score was inactive: -0.508.
For CUCCAUUGCUGAGAUCUAUTT against NAPA, the median seed-adjusted z-score was inactive: -0.563.
For GGUCGAAUACAAAUGCGAATT against GNB4, the median seed-adjusted z-score was inactive: 0.015.
For GAUCAAUUCCAAUCCCAGATT against HTR3E, the median seed-adjusted z-score was inactive: -0.717.
With GAGGCCGCAUAUUACGAAATT against ASPA the median seed-adjusted z-score was inactive: -0.138.
In the case of CCAAGGACCAGGUAGCUAATT against HSP90AA1, the median seed-adjusted z-score is reported as inactive: -0.323.
For CCCGGGUCAUCAUCAAUGATT against ENC1, the median seed-adjusted z-score was inactive: -0.132.
For GGUUAUGCAAGAUAGACGATT against KIF5B, the median seed-adjusted z-score was inactive: 0.162.
In the case of GAAGCUCAAGGUCAAAUCATT against HSPBP1, the median seed-adjusted z-score is reported as inactive: 0.368.
For CCUUUGCCCUGGGAAUCCATT against SLCO4A1, the median seed-adjusted z-score was inactive: -0.0802.
For GCAGGGUAAUAUAUUUGGATT against POU4F3, the median seed-adjusted z-score was inactive: 0.
For GAACUACAGAAUUCGGUAATT against LTA4H, the median seed-adjusted z-score was inactive: -0.742.
In the case of CUAUGUACCGCUUCACUGATT against MMP9, the median seed-adjusted z-score is reported as active: -1.15.
In the case of UAGCCUCUUUGGAUCCAUUTT against KIFC2, the median seed-adjusted z-score is reported as inactive: 0.932.
With GAAUAUGACUCUGCAAAGATT against PDLIM5 the median seed-adjusted z-score was inactive: 0.439.
In the case of GGAAGACGAUGGAUCGCAATT against PARP11, the median seed-adjusted z-score is reported as inactive: 0.192.
With AGCUGCUACUGGAAGUCAATT against CBFA2T3 the median seed-adjusted z-score was inactive: -0.135.
For GAUUACUGGUGCGAUGUUATT against L3MBTL4, the median seed-adjusted z-score was inactive: -0.189.
In the case of GAAUGCCGGUCGAUUCUAATT against KIT, the median seed-adjusted z-score is reported as inactive: -0.686.
With GACUUUCUACUAUGCGGAATT against MSRA the median seed-adjusted z-score was inactive: -0.0316.
In the case of CCACGAACCUGCUUACAGATT against WNT1, the median seed-adjusted z-score is reported as inactive: 0.
With GGAUUGACCUCACCCAGAATT against MAP3K14 the median seed-adjusted z-score was inactive: -0.0609.
In the case of GCCUAAUUGCGGAACAUAUTT against ESCO1, the median seed-adjusted z-score is reported as inactive: 0.755.
With GGAGUUCAUGGGAACAUGATT against RBM28 the median seed-adjusted z-score was inactive: 0.649.
In the case of GGAAUGAUCGACUGCCUGATT against SLC25A18, the median seed-adjusted z-score is reported as inactive: -0.0227.
For UGAACGGCAUGAACACGUATT against FOXA2, the median seed-adjusted z-score was inactive: 0.883.
For GAGCAGUUCGAACACCUUATT against RBM4B, the median seed-adjusted z-score was inactive: -0.251.
For CGGGAACACGUUUCAGGGATT against GPR157, the median seed-adjusted z-score was inactive: 0.152.
With GUGGAACAAUUGUAACAGATT against ETF1 the median seed-adjusted z-score was active: -1.12.
With CAAGGUUGCUGAUCCCACATT against CBR1 the median seed-adjusted z-score was inactive: -0.6.
For AGGUCAUGCUGAUCAGCGATT against ITFG2, the median seed-adjusted z-score was inactive: 0.165.
For GCAAGGCCUUUGGACGCAUTT against WNT6, the median seed-adjusted z-score was inactive: 0.027.
With CACUGAUUCUGAAGGCGAATT against RPS6KA1 the median seed-adjusted z-score was inactive: 0.194.
For GGGAGGAAAUGACAUAACATT against AP1G1, the median seed-adjusted z-score was inactive: 0.0802.
For CCCUCGUGAAGAACCUGAATT against NCK2, the median seed-adjusted z-score was inactive: -0.397.
With GGUCAACCAGUGUACCCAATT against TCF7L2 the median seed-adjusted z-score was inactive: 0.189.
In the case of GCGAGAACAUGUUUACCUUTT against TARSL2, the median seed-adjusted z-score is reported as inactive: 0.361.
In the case of GGAGUUACUCCAUUAACUATT against JARID1C, the median seed-adjusted z-score is reported as inactive: 0.372.
With GGAAAAUGAUUUCAAUCCUTT against NEU1 the median seed-adjusted z-score was inactive: -0.425.
With CAGUCUUCCUAGAUCGUUUTT against PLCB4 the median seed-adjusted z-score was inactive: -0.521.
With CAGUGUCCCUAUGAAGGGATT against SRMS the median seed-adjusted z-score was active: -1.58.
For GAUCAAGAUUGAGUUCACATT against MYL3, the median seed-adjusted z-score was inactive: 0.212.
With GGUAAAGAAUCUUUCCGAATT against MYH13 the median seed-adjusted z-score was inactive: 0.612.
With GCAGUUCCUUCUUCGAGAATT against MGAT5 the median seed-adjusted z-score was inactive: 0.16.
With CUAUCACUGUCUCAAGUCATT against ITGA10 the median seed-adjusted z-score was inactive: 0.378.
With GAAGUGCAUGGAUCCCUUUTT against WFDC8 the median seed-adjusted z-score was inactive: 0.0427.
In the case of CAACCUGCUCUACAGCAAATT against PRSS27, the median seed-adjusted z-score is reported as active: 1.03.
For GGUGCGCUACUUCAUCGAUTT against PRDM12, the median seed-adjusted z-score was inactive: 0.245.
For UGCUCUCUGUUGCAUUGAATT against IAPP, the median seed-adjusted z-score was inactive: -0.157.
With CUCUCAUUCUAGAUCAUCATT against REPS1 the median seed-adjusted z-score was inactive: 0.185.
With CAAGCUAACUCCUCCGGAATT against TSGA14 the median seed-adjusted z-score was inactive: 0.433.
For GAGUCCAGAUUACCACGAATT against CSAD, the median seed-adjusted z-score was inactive: -0.0681.
In the case of CAAGUAACAUUGUAGUCAATT against MAPK10, the median seed-adjusted z-score is reported as inactive: -0.0114.
For CAAGCCUGAUUUCCACCUATT against DTD1, the median seed-adjusted z-score was active: -1.58.
For GCGGUAAAGCGUUCCAUGUTT against PKMYT1, the median seed-adjusted z-score was inactive: 0.65.
In the case of GGUCCAUAUUGGUUAUCUUTT against GCH1, the median seed-adjusted z-score is reported as inactive: 0.569.
In the case of GCAGUUUCAGGGUAUGAAATT against LGMN, the median seed-adjusted z-score is reported as inactive: 0.391.
In the case of GCAUGCAGCCUUGAAGAUATT against CRYZL1, the median seed-adjusted z-score is reported as inactive: 0.0481.
In the case of GCAGUUAACACUCAAGGAATT against MKKS, the median seed-adjusted z-score is reported as active: 1.03.
With GGCUUGAAGUAUGGAAAAATT against QRICH1 the median seed-adjusted z-score was active: -1.04.
In the case of AGAUCUCCUUUCACCAAAATT against N6AMT1, the median seed-adjusted z-score is reported as inactive: 0.166.
With GGUCCGGUUUAUCACUAAATT against UBE2K the median seed-adjusted z-score was inactive: 0.497.
For CGACCACGGCGAAGCAAUATT against TLX2, the median seed-adjusted z-score was inactive: -0.182.
With UCACAACUAUGACAUCUCATT against DDOST the median seed-adjusted z-score was inactive: -0.315.
